Test results published in PubChem BioAssay AID602313 (National Center for Advancing Translational Sciences (NCATS), 2012).
In all, about 390,000 compounds went through this assay and about 760 (0.19%) were called active. The inconclusive results got no clear call from the source; some entries with a clear call stand among them for comparison. The call rests on the fitted dose curve; in most records, active means well fitted inhibition curve with a large enough effect; inconclusive means small, poorly fitted or top-dose-only effect; inactive means flat fitted curve, though single readings scatter. Potencies beside an inconclusive call are fits to weak or partial responses and may not hold up.

experiment: qHTS for Inhibitors of Vif-A3F Interactions: qHTS; conditions: HeLa A3F-eYFP + Vif (tagged APOBEC3F with the HIV-1 protein that degrades it), YFP fluorescence increase; series mostly up to 46.1 µM; further: nearly all actives have a fitted effect of over 65% in size
How it was run: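 HeLa cells stably expressing Vif plus C-terminally eYFP-tagged A3F were seeded, incubated overnight at 37 deg C, dosed with compound, incubated overnight again at 37 deg C. Yellow fluorescence (Ex 488/Em 500-530) reported blocked Vif-mediated A3F-eYFP degradation.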
Potency means the concentration at half of the fitted maximal effect.

For `CC(=O)c1ccc(C(=O)Nc2nnc(-c3ccc(Cl)cc3)o2)cc1`, which Potency is on record?
The Potency was “inactive”.

Which Potency does the source give for `N#C/C(=C\c1ccc(N2CCCCC2)o1)C(N)=O` here?
The Potency was inconclusive: 28.2 µM [inhibitor, single point].

With `CCCn1nc(C(=O)Oc2ccc3c(C)cc(=O)oc3c2)c2ccccc2c1=O` as the compound, how does the Potency read?
Its Potency is “inactive”.

For `O=C(c1ccco1)N1CCN(C(=O)c2ccc(-c3ccccc3Cl)o2)CC1`, which Potency is on record?
The Potency was “inactive”.

With `CCN(CC)C(=S)NC(=O)c1ccc(F)cc1` as the compound, how does the Potency read?
Its Potency is inconclusive: 35.5 µM [inhibitor, single point].

With `Cc1cc(/C=C2\SC(=S)N(Cc3ccco3)C2=O)c(C)n1-c1ccccc1` as the compound, how does the Potency read?
Its Potency is active: 20 µM.

For `CCCCn1c(C)cc2cc(O)ccc21`, which Potency is on record?
The Potency was inconclusive: 15.8 µM [inhibitor, partial curve, poor fit].

For `CN(C)/C=C/C(=O)c1nnn(C2CCCCC2)c1NC1CCCCC1`, which Potency is on record?
Its Potency is inconclusive: 28.2 µM [inhibitor, single point].

For `Cc1ccc(OCCOc2cccc(Br)c2)c([N+](=O)[O-])n1`, which Potency is on record?
Its Potency is “inactive”.

For `Cc1nc2c(-c3ccccc3)c(C)[nH]n2c(=O)c1Cc1ccc(Br)cc1`, which Potency is on record?
The Potency was “inactive”.

For `Cc1ccc(S(=O)(=O)/N=C(/NC(=S)Nc2cccc(C)c2)c2ccccc2)cc1`, which Potency is on record?
The Potency was inconclusive: 35.5 µM [inhibitor, single point].

For `CCOc1cc(/C=C2\CN(C)C/C(=C\c3ccc(O)c(OCC)c3)C2=O)ccc1O`, which Potency is on record?
The Potency was “inactive”.

For `Cc1ccnc2nc(C(=O)Nc3nnc(-c4ccccc4)o3)nn12`, which Potency is on record?
Its Potency is inconclusive: 35.5 µM [inhibitor, single point].

Which Potency does the source give for `C=CCN1C(=O)/C(=C2/Sc3ccccc3N2CC)SC1=S` here?
Its Potency is inconclusive: 10 µM [inhibitor, partial curve, poor fit].

For `CC(C)(C)C1CCC(=NNC(=S)NCc2ccccc2)CC1` (stereo not given), which Potency is on record?
The Potency was inconclusive: 35.5 µM [inhibitor, single point].

For `CCN1CCN(Cc2c(O)ccc3c2O/C(=C\C=C\c2ccccc2)C3=O)CC1`, which Potency is on record?
The Potency was inconclusive: 17.8 µM [inhibitor, single point].

For `COc1ccc2nc(SCC(C)=O)c(C#N)cc2c1`, which Potency is on record?
The Potency was active: 3.55 µM.

For `O=C(O)c1cccc(Cn2c(Cl)c(/C=N/Nc3ccccc3)sc2=O)c1`, which Potency is on record?
Its Potency is inconclusive: 35.5 µM [inhibitor, single point].

With `COc1ccc(N2C(=O)C(=O)/C(=C(/O)c3ccc(C)cc3)C2c2cccnc2)cc1` (stereo not given) as the compound, how does the Potency read?
The Potency was inconclusive: 3.16 µM [inhibitor, single point].

For `CCCCNCc1nc2ccccc2c(=O)[nH]1`, which Potency is on record?
Its Potency is inconclusive: 22.4 µM [inhibitor, single point].
